Values are relative to the signal before dosing, not to a vehicle control; the signal also falls without drug.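 Fibroblast labels name human fibroblasts: mostly primary ones from tissues such as uterus (C12385, HUF), lung (H6013), bone (Hs27A), adrenal (HADF) and skin (WS1), plus mammary HMF and breast cancer-associated Hs343T. The cancer cells are basal-like or mesenchymal-like triple-negative breast cancer lines. The paper calls a changed response a hit when it shifts by more than 3x the replicate standard deviation. The tissue of the other fibroblasts is not given here.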
Tested on: Hs578T
Test: relative JC-1 red fluorescence (viability) vs pre-drug, coculture with fibroblast (fraction); higher = more viable cancer cells
Experimental: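 JC-1 labelled TNBC cells cocultured 1:1 (1,500 cells each) with CellTrace Violet stained primary or stromal fibroblasts in 384-well plates in FluoroBrite medium, treated with one of 42 anticancer drugs at 0.1, 1, 10 or 100 uM. JC-1 red fluorescence (mitochondrial integrity in cancer cells only) was read by plate reader every 8 h for 72 h. Values are normalised to each well's pre-drug value. The stock of one drug was tenfold lower, so its dose labels may be too high.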

N#Cc1ccc(C(c2ccc(C#N)cc2)n2cncn2)cc1 [Letrozole]
relative JC-1 red fluorescence
Conditions | 8 h | 16 h | 24 h | 32 h | 40 h | 48 h | 56 h | 64 h | 72 h
0.1 µM | 0.864 | 0.765 | 0.7261 | 0.712 | 0.661 | 0.627 | 0.61 | 0.561 | 0.543
1 µM | 0.8763 | 0.785 | 0.749 | 0.721 | 0.673 | 0.637 | 0.614 | 0.577 | 0.555

relative JC-1 red fluorescence
Conditions | 8 h | 16 h | 24 h | 32 h | 40 h | 48 h | 56 h | 64 h | 72 h
0.1 µM, coculture fibroblast: C12385 | 0.839 | 0.7112 | 0.688 | 0.582 | 0.522 | 0.483 | 0.453 | 0.441 | 0.44
0.1 µM, coculture fibroblast: H6013 | 0.829 | 0.801 | 0.761 | 0.732 | 0.7 | 0.687 | 0.668 | 0.663 | 0.637
0.1 µM, coculture fibroblast: H6019 | 0.755 | 0.673 | 0.624 | 0.5265 | 0.479 | 0.455 | 0.422 | 0.412 | 0.392
0.1 µM, coculture fibroblast: H6076 | 0.8988 | 0.8159 | 0.752 | 0.725 | 0.679 | 0.665 | 0.646 | 0.64 | 0.638
0.1 µM, coculture fibroblast: H6231 | 0.9048 | 0.7825 | 0.707 | 0.662 | 0.592 | 0.559 | 0.507 | 0.488 | 0.466
0.1 µM, coculture fibroblast: HADF | 0.841 | 0.724 | 0.635 | 0.57 | 0.5216 | 0.4924 | 0.459 | 0.447 | 0.426
0.1 µM, coculture fibroblast: HCFa | 0.828 | 0.76 | 0.707 | 0.657 | 0.602 | 0.579 | 0.553 | 0.531 | 0.495
0.1 µM, coculture fibroblast: HCPF | 0.9401 | 0.837 | 0.8 | 0.769 | 0.695 | 0.664 | 0.639 | 0.61 | 0.592
0.1 µM, coculture fibroblast: HHSteC | 0.873 | 0.767 | 0.702 | 0.636 | 0.577 | 0.543 | 0.517 | 0.492 | 0.461
0.1 µM, coculture fibroblast: HMF | 0.891 | 0.79 | 0.72 | 0.69 | 0.629 | 0.592 | 0.559 | 0.542 | 0.5305
0.1 µM, coculture fibroblast: HPFa | 0.896 | 0.789 | 0.709 | 0.64 | 0.589 | 0.54 | 0.496 | 0.476 | 0.433
0.1 µM, coculture fibroblast: HUF | 0.86 | 0.724 | 0.679 | 0.568 | 0.507 | 0.473 | 0.436 | 0.425 | 0.415
0.1 µM, coculture fibroblast: Hs27A | 0.889 | 0.775 | 0.724 | 0.667 | 0.608 | 0.584 | 0.538 | 0.523 | 0.473
0.1 µM, coculture fibroblast: Hs343T | 0.913 | 0.801 | 0.747 | 0.7225 | 0.6485 | 0.6215 | 0.579 | 0.55 | 0.54901
0.1 µM, coculture fibroblast: WS1 | 0.836 | 0.718 | 0.647 | 0.55 | 0.492 | 0.468 | 0.434 | 0.428 | 0.417
1 µM, coculture fibroblast: C12385 | 0.84 | 0.731 | 0.712 | 0.627 | 0.569 | 0.541 | 0.522 | 0.513 | 0.514
1 µM, coculture fibroblast: H6013 | 0.9283 | 0.855 | 0.8 | 0.766 | 0.716 | 0.698 | 0.669 | 0.653 | 0.613
1 µM, coculture fibroblast: H6019 | 0.774 | 0.669 | 0.63 | 0.529 | 0.492 | 0.464 | 0.43 | 0.406 | 0.38
1 µM, coculture fibroblast: H6076 | 0.8546 | 0.7415 | 0.719 | 0.712 | 0.683 | 0.697 | 0.698 | 0.706 | 0.726
1 µM, coculture fibroblast: H6231 | 0.909 | 0.812 | 0.734 | 0.705 | 0.65 | 0.63 | 0.595 | 0.569 | 0.556
1 µM, coculture fibroblast: HADF | 0.87698 | 0.794 | 0.7444 | 0.6966 | 0.658 | 0.636 | 0.6 | 0.591 | 0.561
1 µM, coculture fibroblast: HCFa | 0.865 | 0.7745 | 0.7347 | 0.685 | 0.62 | 0.599 | 0.563 | 0.548 | 0.509
1 µM, coculture fibroblast: HCPF | 0.925 | 0.837 | 0.773 | 0.736 | 0.672 | 0.64028 | 0.616 | 0.574 | 0.548
1 µM, coculture fibroblast: HHSteC | 0.861 | 0.773 | 0.674 | 0.611 | 0.543 | 0.505 | 0.468 | 0.444 | 0.401
1 µM, coculture fibroblast: HMF | 0.8493 | 0.751 | 0.682 | 0.666 | 0.607 | 0.579 | 0.544 | 0.528 | 0.52
1 µM, coculture fibroblast: HPFa | 0.922 | 0.839 | 0.772 | 0.699 | 0.65 | 0.612 | 0.562 | 0.533 | 0.484
1 µM, coculture fibroblast: HUF | 0.861 | 0.759 | 0.743 | 0.632 | 0.567 | 0.529 | 0.504 | 0.49 | 0.485
1 µM, coculture fibroblast: Hs27A | 0.885 | 0.828 | 0.776 | 0.736 | 0.668 | 0.649 | 0.608 | 0.596 | 0.545
1 µM, coculture fibroblast: Hs343T | 0.888 | 0.775 | 0.694 | 0.669 | 0.605 | 0.574 | 0.536 | 0.522 | 0.523
1 µM, coculture fibroblast: WS1 | 0.8014 | 0.683 | 0.64 | 0.539 | 0.478 | 0.457 | 0.432 | 0.435 | 0.436
